Test results taken from PubChem BioAssay AID504834 (National Center for Advancing Translational Sciences (NCATS), 2011).
Several values for one entry are separate records, joined by “and”; a condition that tells them apart may be missing. Identical values can stand only once. The whole screen tested about 320,000 compounds, of which about 22,000 (6.9%) were called active. Inconclusive means that the source gave no clear call. Such entries were picked first, then a sample of the others. The call rests on the fitted dose curve; in most records, active means well fitted inhibition curve with a large enough effect; inconclusive means small, poorly fitted or top-dose-only effect, or another doubt; inactive means no such curve, though single readings can be large or run the other way. A potency beside an inconclusive call is a rough fit, not a confirmed value.

Test: Primary qHTS for delayed death inhibitors of the malarial parasite plastid, 96 hour incubation
Details: P. falciparum luciferase reporter growth; series mostly up to 28.7 µM
How it was run: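 Cell-based qHTS: luciferase-tagged P. falciparum in erythrocytes (2% hematocrit, 0.05% parasitemia final) incubated with compounds for 96 hours, 37 C, 5% CO2; luciferase detection reagent then added and luminescence measured.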
Potency means the concentration at half of the fitted maximal effect.

Row | SMILES | Potency
1 | COc1cc(-c2ccc(Nc3ccccc3C(=O)O)c(OC)c2)ccc1Nc1ccccc1C(=O)O | inconclusive: 5.22 µM [inhibitor, partial curve]
2 | O=Nc1c(-c2ccccc2)[nH]n(-c2ccccc2)c1=O | inconclusive: 18.5 µM [inhibitor, single point]
3 | CCC(C)(C)NC(=O)/C=C/c1ccc(OC)c(S(=O)(=O)N2CCOCC2)c1 | inconclusive: 10.4 µM [inhibitor, partial curve, poor fit]
4 | Cc1ccc2cc(CN(C(=O)c3ccncc3)C(C)C)c(=O)[nH]c2c1 | active: 8.28 µM
5 | COc1cc(C)c2c(c1C=O)Oc1c(c(C)c(O)c3c1C(O)OC3=O)OC2=O (configuration not stated) | inconclusive: 4.65 µM [inhibitor, full curve, poor fit]
6 | COc1ccc(/C=N/Nc2nc3ccccc3[nH]2)c(OC)c1OC | active: 4.15 µM
7 | COc1ccc(C(=O)/C=C/c2ccc(OC)c(O)c2)c(F)c1 | inconclusive: 1.17 µM [inhibitor, partial curve, poor fit]
8 | CCOc1ccccc1N=C1SC(CC(=O)Nc2ccc(OC)cc2OC)C(=O)N1CCC1=CCCCC1 (configuration not stated) | active: 4.15 µM
9 | Fc1ccc(C2CCNCC2COc2ccc3c(c2)OCO3)cc1 (configuration not stated) | inconclusive: 18.5 µM [inhibitor, single point]
10 | CCC(C)(C)n1nnnc1C(c1cccnc1)N1CCCC(C)C1 (configuration not stated) | inactive
11 | COc1ccc(/C=N/NC2=NS(=O)(=O)c3ccccc32)cc1 | inconclusive: 13.1 µM [inhibitor, single point]
12 | CC1CCN(C(=S)NC(=O)c2ccco2)CC1 | inactive
13 | CCCCn1c(-c2ccc(OC(F)F)cc2)nc2c1c(=O)[nH]c(=O)n2CC(C)C | inconclusive: 7.38 µM [inhibitor, partial curve, poor fit]
14 | CCCCCCC(CC(=O)NCc1cccnc1)CC(=O)NCc1cccnc1 | inconclusive: 2.08 µM [inhibitor, single point]
15 | CC[C@]1(O)C[C@H]2CN(CCc3c([nH]c4ccccc34)[C@@](C(=O)OC)(c3cc4c(cc3OC)N(C=O)[C@H]3[C@@](O)(C(=O)OC)[C@H](OC(C)=O)[C@]5(CC)C=CCN6CC[C@]43[C@@H]65)C2)C1 | active: 9.53 µM
16 | CC(C)(C)c1cc(CCC(=O)N2CCC2)cc(C(C)(C)C)c1O | inactive
17 | O=C(COc1ncnc2ccccc12)Nc1cc(S(=O)(=O)N2CCOCC2)ccc1Cl | inactive
18 | COc1ccc(/C=C/c2nc(C)c(-c3ccccc3)c(=O)[nH]2)cc1OC | inactive
19 | O=[N+]([O-])c1ccc(-c2nc(=S)c3c(o2)CCCC3)cc1 | inactive
20 | COC(=O)c1ccc(N(C(=O)CNC(=O)c2ccco2)C(C(=O)NC2CCCC2)c2ccco2)cc1 (configuration not stated) | inconclusive: 18.5 µM [inhibitor, single point]
21 | Cn1c(=O)n(C/C=C/c2ccccc2)c(=O)c2c1nc1n2CCCN1Cc1ccccc1 | active: 14.7 µM
22 | COc1ccc(C2CC(c3ccccc3)=NN2S(=O)(=O)c2ccc(C)cc2)c(OC)c1 (configuration not stated) | active: 11.7 µM
23 | O=C(NCC(=O)N(Cc1cccs1)C(C(=O)NC1CCCC1)c1cccnc1)c1ccco1 (configuration not stated) | inactive

Row | SMILES | Potency
24 | COc1ccc(CNC(=O)C2CCC(CNC(=O)[C@@H]3Cc4ccccc4CN3)CC2)cc1 (some centres not stated) | inconclusive: 18.5 µM [inhibitor, single point]
25 | CN(C(=O)c1ccc(NC(=O)Cc2ccc(NC(=O)C3CCCN(C(=O)c4ccccc4)C3)cc2)cc1)C1CC1 (configuration not stated) | inconclusive: 0.657 µM [inhibitor, partial curve]
26 | Cc1ccc(S(=O)(=O)NC(=O)Nc2ccc(C)cc2C)cc1 | inactive
27 | CCCn1c(SCC(=O)c2ccc(CC)cc2)n[nH]c1=O | inconclusive: 0.185 µM [inhibitor, full curve, poor fit]
28 | Nc1c(-c2ccccc2)cnc2c(-c3ccccc3)cnn12 | inactive
29 | CCn1c(=O)c(C(=O)NNC(=O)c2ccccc2Cl)c(O)c2ccccc21 | inactive
30 | C=CCNC(=O)C1CCN(c2ccc(S(=O)(=O)N3CCOCC3)cc2[N+](=O)[O-])CC1 | inconclusive: 4.15 µM [inhibitor, partial curve, poor fit]
31 | N#CCOC(=O)C1CSC2(c3ccc(Br)cc3)CCC(=O)N12 (configuration not stated) | inactive
32 | CC(C)Cn1c(N)c(C(=O)COC(=O)CCc2nc3ccccc3s2)c(=O)n(C)c1=O | inactive
33 | CCN(CC)S(=O)(=O)c1ccc(C(=O)N2CCN(CCN3C(=O)c4cccc5cccc(c45)C3=O)CC2)cc1 | active: 2.94 µM
34 | CCCn1c2ccccc2c2cnn(CC(=O)NCCCN3C(C)CCCC3C)c(=O)c21 (configuration not stated) | inconclusive: 11.7 µM [inhibitor, single point]
35 | O=C(NC1CCCC1)C(c1ccncc1)N(C(=O)c1csnn1)c1ccc(Cl)cc1 (configuration not stated) | inconclusive: 0.0928 µM [inhibitor, full curve, poor fit]
36 | CCOc1ccc(CN(C)C(=O)c2cc3ccccc3o2)cc1OC | inconclusive: 0.0033 µM [inhibitor, full curve, poor fit]
37 | O=C(CCC(=O)N1CCOc2ccccc21)NCc1cccnc1 | inactive
38 | Cc1ccc(SCC(=O)N2CCCC2)cc1 | inactive
39 | O=C(Nc1ccccn1)c1ccc(Br)c(S(=O)(=O)N2CCCC2)c1 | inactive
40 | Cc1ccc2c(C)c(C(=O)Nc3c(C)n(C)n(-c4ccccc4)c3=O)oc2c1 | inconclusive: 18.5 µM [inhibitor, single point]
41 | CCC(=O)N1CCc2cc(S(=O)(=O)NCCCN3CCN(Cc4ccccc4)CC3)ccc21 | inactive
42 | CCCn1c(SCC(=O)N2N=C3/C(=C/c4ccc(OC)cc4)CCCC3C2c2ccc(OC)cc2)n[nH]c1=O (configuration not stated) | inconclusive: 18.5 µM [inhibitor, single point]
43 | COc1ccccc1NC(=O)c1c(NC(=O)CCC(=O)O)sc2c1CCCCC2 | inconclusive: 2.33 µM [inhibitor, partial curve, poor fit]
44 | O=C(NCC1CCCO1)c1cccc(-n2cnnn2)c1 (configuration not stated) | inconclusive: 18.5 µM [inhibitor, single point]
45 | CC1CCN(CC(=O)Nc2cccc([N+](=O)[O-])c2)CC1 | inactive
46 | CCc1cccc(C)c1NC(=O)C1CCCN(S(C)(=O)=O)C1 (configuration not stated) | inconclusive: 1.65 µM [inhibitor, full curve, poor fit]

Row | SMILES | Potency
47 | COc1cc(S(=O)(=O)N2CCN(Cc3ccc4c(c3)OCO4)CC2)c(C)cc1C | inconclusive: 18.5 µM [inhibitor, single point]
48 | CCO[C@@H]1OC(C(=O)NCc2nc3ccccc3[nH]2)=C[C@H](c2cn(C(C)=O)c3ccccc23)[C@H]1CCCO | inconclusive: 0.657 µM [inhibitor, full curve, poor fit]
49 | O=C(Cn1cnc2nc3n(c2c1=O)CCC3)NCc1ccccc1 | inconclusive: 8.28 µM [inhibitor, partial curve, poor fit]
50 | Cc1ccc(/C=C2/SC(=S)N(CCC(=O)NCCCN3CCOCC3)C2=O)cc1 | inconclusive: 11.7 µM [inhibitor, single point]
51 | CCCCCCCCCC(=O)NO | inconclusive: 4.78 µM [inhibitor, partial curve, poor fit]
52 | COc1ccc(-c2cnnn2-c2ccc(NC(=O)c3ccc(S(=O)(=O)N4CCCCC4)cc3)cc2)cc1 | inconclusive: 10.4 µM [inhibitor, single point]
53 | COC(=O)C1=C(c2ccc3ccccc3c2)C[C@@H]2CC[C@H]1N2C(=O)NCCO | inactive
54 | Cc1ccc(-n2nnnc2SC(C)C(=O)Nc2ccc(Cl)cn2)cc1 (configuration not stated) | active: 9.28 µM
55 | CCCn1ncc(CN2CCC(n3nccc3NC(=O)c3ccccc3Cl)CC2)c1C | inconclusive: 10.4 µM [inhibitor, single point]
56 | CCOc1ccccc1CNc1ncnc2ccc(-c3c(C)noc3C)cc12 | inconclusive: 18.5 µM [inhibitor, single point] and inconclusive: 8.28 µM [inhibitor, partial curve, poor fit]
57 | C=CCCC(=O)NC1CCCc2c1cnn2-c1ccccc1F (configuration not stated) | inconclusive: 9.28 µM [inhibitor, single point]
58 | c1ccc(-c2csc3ncnc(N4CCN(Cc5ccc6c(c5)OCO6)CC4)c23)cc1 | inconclusive: 3.29 µM [inhibitor, full curve]
59 | COc1ccc(Cl)cc1NC(=O)CCc1nnc2ccc(N3CCN(C)CC3)nn12 | inconclusive: 10.4 µM [inhibitor, single point]
60 | COc1ccc2cc(C=O)n(C)c2c1 | inconclusive: 16.5 µM [inhibitor, single point]
61 | Cc1cc2cc(CNC(=O)Nc3ccccc3)ccc2n1C | inactive
62 | Cc1noc(C)c1S(=O)(=O)Nc1ccc(C(=O)NC2CCCCC2C)cc1 (configuration not stated) | inconclusive: 6.57 µM [inhibitor, partial curve, poor fit]
63 | COc1cc2c(cc1NC(=O)COC(=O)/C=C/c1ccccc1)oc1ccccc12 | inactive
64 | Cc1ccccc1N(C(=O)Cc1c[nH]c2ccccc12)C(C(=O)NC1CCCCC1)c1ccco1 (configuration not stated) | inactive
65 | COc1cc(OC)c(/C=C2\C(=O)Nc3ccccc32)c(OC)c1 | inconclusive: 20.8 µM [inhibitor, partial curve, poor fit]
66 | COc1cc(C2CC(=O)Oc3c2c(=O)n(C)c2ccccc32)cc(OC)c1OC (configuration not stated) | inconclusive: 10.4 µM [inhibitor, partial curve, poor fit]
67 | COc1ccc(/C=C2/C(=O)ON=C2c2ccccc2)cc1OC | inactive
